PubChem BioAssay AID1259424, University of Nebraska Medical Center – 2018
This is a random part of about 14,000 deposited reagents. 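Higher correlation or smaller distance means closer resemblance to KSR1 loss; control wells, including KSR1 knockdowns, recur on many plates.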 Not all columns of the deposit are shown. The record does not give: the time to read-out.

Screen: 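Find knockdowns that reproduce the expression shifts seen after KSR1 loss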 (primary screen)
System: human HCT116 colon cancer cells
Knock-down reagent: siRNA pool against human genes, 50 nM
Detection: 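Six signature mRNAs by branched-DNA multiplex assay, scaled to two housekeeping genes and non-targeting median, log2; matched to mean KSR1 knockdown profile by Pearson correlation and euclidean distance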
Direction: mean correlation with KSR1 profile: higher = expression change more like KSR1 knockdown; mean distance from KSR1 profile: higher = expression change less like KSR1 knockdown

CHGA (chromogranin A) → mean correlation with KSR1 profile = -0.198; mean distance from KSR1 profile = 2.24
ADSS1 (adenylosuccinate synthase 1) → mean correlation with KSR1 profile = 0.0421; mean distance from KSR1 profile = 1.84
ATP5MC1 (ATP synthase membrane subunit c locus 1) → mean correlation with KSR1 profile = -0.382; mean distance from KSR1 profile = 2.56
PSRC1 (proline and serine rich coiled-coil 1) → mean correlation with KSR1 profile = -0.489; mean distance from KSR1 profile = 2.13
RBM47 (RNA binding motif protein 47) → mean correlation with KSR1 profile = -0.355; mean distance from KSR1 profile = 2.48
PALS2 (protein associated with LIN7 2, MAGUK p55 family member) → mean correlation with KSR1 profile = 0.31; mean distance from KSR1 profile = 1.09

Only “mean distance from KSR1 profile”, for 2 of the entries above:
CHGA (chromogranin A) = 2.24
ADSS1 (adenylosuccinate synthase 1) = 1.84

Next reagents follow.
FASN (fatty acid synthase) → mean correlation with KSR1 profile = -0.606; mean distance from KSR1 profile = 3.99
ISL2 (ISL LIM homeobox 2) → mean correlation with KSR1 profile = -0.911; mean distance from KSR1 profile = 1.98
WNT2B (Wnt family member 2B) → mean correlation with KSR1 profile = -0.0722; mean distance from KSR1 profile = 2.8
DNM1L (dynamin 1L) → mean correlation with KSR1 profile = -0.168; mean distance from KSR1 profile = 2.55
ZNF469 (zinc finger protein 469) → mean correlation with KSR1 profile = -0.251; mean distance from KSR1 profile = 4.66
SLITRK3 (SLIT and NTRK like family member 3) → mean correlation with KSR1 profile = -0.712; mean distance from KSR1 profile = 2.39
ASCC1 (activating signal cointegrator 1 complex subunit 1) → mean correlation with KSR1 profile = -0.393; mean distance from KSR1 profile = 2.59
LPAL2 (lipoprotein(a) like 2 (pseudogene)) → mean correlation with KSR1 profile = -0.801; mean distance from KSR1 profile = 2.7
SMARCAD1 (SNF2 related chromatin remodeling ATPase with DExD box 1) → mean correlation with KSR1 profile = 0.218; mean distance from KSR1 profile = 1.82
ARTN (artemin) → mean correlation with KSR1 profile = -0.292; mean distance from KSR1 profile = 2.43
COL8A2 (collagen type VIII alpha 2 chain) → mean correlation with KSR1 profile = 0.153; mean distance from KSR1 profile = 1.07
POU3F4 (POU class 3 homeobox 4) → mean correlation with KSR1 profile = 0.311; mean distance from KSR1 profile = 1.24
SLC48A1 → mean correlation with KSR1 profile = -0.592; mean distance from KSR1 profile = 3.17
